Experimental data as given in publication PMC8465061.
Construct, isoform or probe ends are uncertain for at least one entry. Tags and fusion partners may be left off the protein sequences shown.

Molecular target: T1, TTHA1359 (CRP/FNR family transcriptional regulator) (Thermus thermophilus HB8) (UniProt Q5SIL0)
T1 sequence (looked up): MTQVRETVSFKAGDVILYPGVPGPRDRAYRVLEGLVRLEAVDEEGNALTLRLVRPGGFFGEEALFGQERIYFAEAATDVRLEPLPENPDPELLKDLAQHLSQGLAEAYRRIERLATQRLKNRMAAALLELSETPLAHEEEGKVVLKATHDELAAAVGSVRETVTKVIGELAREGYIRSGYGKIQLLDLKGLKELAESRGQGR
Experiment: BLI
Settings: ambiguous fit; BLI: streptavidin tips, 5.7-461 nM TTHA1359, buffer as in cited earlier work; recombinant protein; residues 1-202; label: 5' biotin-dT on strand 2; letters put together from the description

Q: Which Kd does the source give for “CTAGGAATTCGTGCAGAGGTGAATACGAAAAACACACACCATCCCTCCAGAAGCTTGGACA (double strand) [ST2_1359_ctrl (REPSAis)]” here?
A: Its Kd is > 1 µM.
